# Measurements reported in patent publication EP0675126A1, “AMYLOID BETA-PROTEIN AGGLUTINATION AND/OR DEPOSITION INHIBITOR” (TEIJIN LIMITED, priority 1993, dated 1995).
# Protein sequences, listed by entry. Tags and fused reporters are not part of them. Residues count along the entry.
# UniProt P05067, 672-706: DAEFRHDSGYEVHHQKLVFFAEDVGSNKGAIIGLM
# UniProt P05067, 672-711: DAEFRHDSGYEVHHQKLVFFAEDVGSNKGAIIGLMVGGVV
# UniProt P05067, 672-713: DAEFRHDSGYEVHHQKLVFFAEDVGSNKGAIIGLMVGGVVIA
# At least one structure is not confirmed: it was looked up by name or label, or the drawing left a doubt.
# Assays:
# Type in all cases: biochemical
# β1-35 peptide [1] = biological target: T1, β1-35 peptide (Homo sapiens, UniProt P05067); assay: β-amyloid protein aggregation inhibition by SDS-PAGE (Example 1); details: drug agent 100 µg/ml; β1-35 peptide 2 mg/ml; room temperature; control and methanol solutions aggregated by the 7th day
# T1 construct: made in house; host or cells: chemical solid-phase synthesis (Fmoc)
# Excerpt: When synthesized β-amyloid protein is subjected to SDS-PAGE, a 3-4 kDa band due to the peptide monomer is observed. However, when the protein begins to aggregate, this monomer band becomes thinner and a smear is observed at the high molecular end (Tomiyama, et al. 1994, J. Biol. Chem. 269, 10205-10208). The inhibitory activity of a drug agent against β-amyloid protein aggregation may be determined by measuring the aggregation period of β-amyloid in admixture with the drug agent based on the decrease in peptide monomer or appearance of smearing observed with SDS-PAGE.
# Specifically, 10 µl of solution is taken from a reagent solution containing β-amyloid protein and a drug agent, an equivalent of a sample buffer for electrophoresis (20 mM Tris-HCl buffer, pH 6.8, 40% glycerin, 2% SDS, 2% β-mercaptoethanol) is added thereto, and the mixture is boiled at 100°C for 5 minutes. Next, 10 µl of the solution is placed on a 15-25% polyacrylamide gradient gel for electrophoresis in a Tris-glycine buffered system. After completion of the electrophoresis, the gel is stained with 0.2% Coomassie brilliant blue solution and the amount of peptide monomer (band thickness) and presence of smearing is observed. […]
# β1-35 peptide [2] = biological target: T1, β1-35 peptide; assay: β-amyloid protein aggregation after nucleation (seeded), SDS-PAGE (Example 2); details: β1-35 peptide 1 mg/ml with 1% by volume pre-aggregated peptide, control smear on the 6th day
# β1-40 peptide [3] = biological target: T2, β1-40 peptide (Homo sapiens, UniProt P05067); assay: β1-40 peptide aggregation, thioflavin T (ThT) method (Example 5); details: β1-40 peptide 100 µg/ml, Fig. 3
# T2 construct: β1-40 peptide (Bachem Co.) was dissolved in double deionized water to 200 µg/ml; purchased Bachem Co
# β1-40 peptide [4] = biological target: T2, β1-40 peptide; assay: Fibril formation by electron microscope observation (Example 6); details: rifampicin 100 µg/ml; β1-40 peptide 100 µg/ml; 8th day; DMSO control showed a large number of fibrils 5-20 nm in diameter
# β1-42 peptide = biological target: T3, β1-42 peptide (Homo sapiens, UniProt P05067); assay: β1-42 peptide aggregation, thioflavin T (ThT) method (Example 9); details: rifampicin 100 µM, 10 µM or 1 µM; 10 µM β1-42; 37°C, one week; Fig. 6
# T3 construct: A 100 µg portion of β1-42 peptide (product of Bachem Co.) was dissolved in 200 µl of DMSO; purchased Bachem Co
compound,measurement,setting,value
"CO[C@H]1/C=C/O[C@@]2(C)Oc3c(C)c(O)c4c(O)c(c(/C=N/N5CCN(C)CC5)c(O)c4c3C2=O)NC(=O)/C(C)=C\C=C\[C@H](C)[C@H](O)[C@@H](C)[C@@H](O)[C@@H](C)[C@H](OC(C)=O)[C@@H]1C [rifampicin, Rifampicin]",reduction in peptide monomer and appearance of smear (β1-35 peptide aggregation),β1-35 peptide [1],no reduction in peptide monomer or smearing was observed up to the 14th day after dissolution
same,appearance period of β1-35 peptide aggregates (smears),β1-35 peptide [2]; rifampicin 1 µg/ml,a smear was observed on the 6th day after dissolution
same,appearance period of β1-35 peptide aggregates (smears),β1-35 peptide [2]; rifampicin 10 µg/ml,no smear was observed up to the 10th day after dissolution
same,increase in ThT fluorescence (β1-40 peptide aggregation),β1-40 peptide [3]; rifampicin 1 µg/ml,followed the same course as the control peptide solution
same,increase in ThT fluorescence (β1-40 peptide aggregation),"β1-40 peptide [3]; rifampicin 10 µg/ml, 6th day",the same degree of fluorescence was exhibited as with the control peptide solution
same,increase in ThT fluorescence (β1-40 peptide aggregation),"β1-40 peptide [3]; rifampicin 10 µg/ml, up to the 3rd day",no fluorescence was seen up to the 3rd day
same,increase in ThT fluorescence (β1-40 peptide aggregation),"β1-40 peptide [3]; rifampicin 100 µg/ml, room temperature, control increased by the 3rd day",no increase in fluorescence was seen up to the 6th day
same,fibril formation due to peptide aggregation,β1-40 peptide [4],virtually none were observed
same,β1-42 peptide aggregation (ThT fluorescence),β1-42 peptide,suppressed the β1-42 peptide aggregation in a concentration-dependent manner
